Results taken from PMC4714187.
Results are given in words; binding and its absence hold for the method and conditions named. Some results given as binding are weak or reduced against the parent protein; the word gives no strength.

The chains behind the UniProt entries cited, without tags or fusion partners.
UniProt Q23445: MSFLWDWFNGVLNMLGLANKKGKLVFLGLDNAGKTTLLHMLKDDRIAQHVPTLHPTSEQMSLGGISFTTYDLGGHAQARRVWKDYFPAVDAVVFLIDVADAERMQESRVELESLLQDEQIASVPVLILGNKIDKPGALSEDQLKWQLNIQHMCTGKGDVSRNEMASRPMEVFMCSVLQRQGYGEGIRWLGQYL
UniProt P20606: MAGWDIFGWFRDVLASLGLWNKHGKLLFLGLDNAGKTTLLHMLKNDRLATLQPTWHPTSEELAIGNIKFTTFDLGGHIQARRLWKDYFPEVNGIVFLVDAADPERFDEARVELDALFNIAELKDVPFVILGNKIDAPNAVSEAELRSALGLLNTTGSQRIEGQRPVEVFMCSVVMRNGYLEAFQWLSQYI

What was measured:
[1] = target: C. elegans SAR-1 (C. elegans) (UniProt Q23445); experiment: SEC-MALS; size-exclusion column equilibrated in 500 uM GTP or 500 uM GDP, coupled to three-angle light scattering and refractive index detectors; flow 0.5 ml/min; Sar1 buffer (25 mM HEPES pH 7.2, 100 mM NaCl, 1 mM MgCl2); both purified
[2] = target: S. cerevisiae Sar1p (S. cerevisiae) (UniProt P20606); experiment: as above

Row | Substance | binding [1] | binding [2]
1 | C. elegans SAR-1 (from UniProt Q23445 1-193) | binds weakly | 
2 | S. cerevisiae Sar1p (from UniProt P20606 1-190) |  | binds weakly
